Results deposited as PubChem BioAssay AID1259254 (NCATS, 2017)
Here is one part, drawn at random, of about 59,000 deposited reagents. Of all reagents, about 1,550 (2.6%) were called active. 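G2 share is only a proxy for re-replication; each gene was hit by three separate siRNAs, and active genes were retested.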 Raw values are not corrected between plates. Reagents against one gene are numbered here. No sequences are given here. The record does not give: the amount of reagent.

Test: 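Genome-wide screen for genes that prevent DNA re-replication in cancer cells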 (primary screen)
Cell system: human HCT116 colorectal cancer cells
Reagent: single siRNA against human genes
Time to read-out: 3 days
Detection: 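Nuclei stained with Hoechst and imaged; cell-cycle phase assigned by DNA content; G2 share scaled per plate, non-targeting siRNA 0%, GMNN siRNA 100%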
Scale: G2 robust z-score and G2 cells, % of GMNN control: higher = more G2 cells, more excess DNA replication; raw share of cells in G2: higher = larger share of cells with G2 DNA content
Rule for the call: 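Active siRNAs have a G2 robust z of 5 or more median absolute deviations over the median, which in these data means about 38% or higher of GMNN control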

Target gene | siRNA no. | G2 robust z-score | G2 cells, % of GMNN control | raw share of cells in G2 (%) | Outcome
RPL14 | 1 | 2.61 | 21.3 | 14.6 | inactive
RPL14 | 2 | 2.47 | 20.3 | 12 | inactive
RPL14 | 3 | 4.63 | 35.5 | 15.9 | inactive
ASB11 | 1 | 0.96 | 9.72 | 6.1 | inactive
ASB11 | 2 | -0.925 | -3.54 | 2.84 | inactive
ASB11 | 3 | -0.635 | -1.5 | 2.63 | inactive
TM2D2 | 1 | 2.07 | 17.6 | 9.95 | inactive
TM2D2 | 2 | -0.938 | -3.63 | 2.38 | inactive
TM2D2 | 3 | -0.369 | 0.374 | 2.52 | inactive
RGR | 1 | -0.714 | -2.05 | 5.11 | inactive
RGR | 2 | 2.05 | 17.4 | 10.6 | inactive
RGR | 3 | 0.462 | 6.22 | 5.18 | inactive
SH3D19 | 1 | -0.436 | -0.101 | 3.79 | inactive
SH3D19 | 2 | 1.46 | 13.2 | 6.99 | inactive
SH3D19 | 3 | -0.645 | -1.57 | 2.52 | inactive
SLC30A7 | 1 | -1.14 | -5.03 | 2.58 | inactive
SLC30A7 | 2 | 1.8 | 15.6 | 13.4 | inactive
SLC30A7 | 3 | -0.677 | -1.8 | 4.05 | inactive
RPS7 | 1 | 4.06 | 31.5 | 18.4 | inactive
RPS7 | 2 | 2.04 | 17.3 | 11.1 | inactive
RPS7 | 3 | 1.23 | 11.6 | 7.55 | inactive
SRSF11 | 1 | -0.709 | -2.02 | 4.42 | inactive
SRSF11 | 2 | -0.532 | -0.779 | 3.62 | inactive
SRSF11 | 3 | -1.05 | -4.45 | 1.79 | inactive
OAZ2 | 1 | -0.00843 | 2.91 | 5.93 | inactive
OAZ2 | 2 | -0.313 | 0.764 | 3.46 | inactive
OAZ2 | 3 | 1.91 | 16.4 | 11.4 | inactive
XIAP | 1 | -0.0614 | 2.54 | 5.98 | inactive
XIAP | 2 | -0.324 | 0.69 | 4.25 | inactive
XIAP | 3 | -0.583 | -1.13 | 4.33 | inactive
MROH3P | 1 | 0.0709 | 3.47 | 4.14 | inactive
MROH3P | 2 | -0.464 | -0.294 | 3.67 | inactive
MROH3P | 3 | 4.66 | 35.8 | 16.5 | inactive
MROH3P | 4 | -0.0804 | 2.4 | 3.81 | inactive
MROH3P | 5 | -0.444 | -0.154 | 3.72 | inactive
MROH3P | 6 | -0.825 | -2.84 | 2.17 | inactive
SIRAL2 | 1 | -0.722 | -2.11 | 3.71 | inactive
SIRAL2 | 2 | -0.672 | -1.76 | 3.41 | inactive
SIRAL2 | 3 | -0.563 | -0.994 | 2.82 | inactive
ZNF705A | 1 | 3.28 | 26.1 | 12.1 | inactive
ZNF705A | 2 | -0.213 | 1.47 | 3.67 | inactive
ZNF705A | 3 | -0.953 | -3.74 | 2.21 | inactive
CDR1 | 1 | 0.134 | 3.91 | 5.05 | inactive
CDR1 | 2 | 1.82 | 15.8 | 12.7 | inactive
CDR1 | 3 | 3.16 | 25.2 | 13.3 | inactive
DDX27 | 1 | 2.04 | 17.3 | 14 | inactive
DDX27 | 2 | 0.831 | 8.82 | 7.6 | inactive
DDX27 | 3 | 4.74 | 36.3 | 19.5 | inactive
CCDC54 | 1 | 1.83 | 15.8 | 9.38 | inactive
CCDC54 | 2 | -0.564 | -1 | 3.16 | inactive
CCDC54 | 3 | 2.14 | 18 | 7.88 | inactive
LINC02499 | 1 | 0.735 | 8.14 | 6.63 | inactive
LINC02499 | 2 | -0.168 | 1.79 | 3.5 | inactive
LINC02499 | 3 | 0.816 | 8.71 | 6.9 | inactive
TOR4A | 1 | 4.7 | 36 | 16.5 | inactive
TOR4A | 2 | 0.602 | 7.21 | 7.31 | inactive
TOR4A | 3 | 1.4 | 12.8 | 7.43 | inactive
SPEN-AS1 | 1 | -1.13 | -5 | 1.35 | inactive
SPEN-AS1 | 2 | -0.307 | 0.807 | 4.08 | inactive
SPEN-AS1 | 3 | -0.455 | -0.236 | 3.14 | inactive
SPEN-AS1 | 4 | -0.609 | -1.31 | 2.63 | inactive
SPEN-AS1 | 5 | -0.449 | -0.194 | 4.02 | inactive
SPEN-AS1 | 6 | 0.669 | 7.67 | 5.81 | inactive
CDCP1 | 1 | -0.551 | -0.91 | 4.18 | inactive
CDCP1 | 2 | -0.218 | 1.43 | 5.25 | inactive
CDCP1 | 3 | 3.13 | 25 | 9.29 | inactive
SAFB | 1 | -0.112 | 2.18 | 5.73 | inactive
SAFB | 2 | -0.869 | -3.15 | 3.1 | inactive
SAFB | 3 | -0.995 | -4.04 | 3.14 | inactive
